Reference: patent US20240101675A1 (BIOLOJIC DESIGN, published 2024)
These are yes or no findings as the source states them, for the method shown. Some entries that bind do so weakly or less than the wild type. Tags and fused reporters may be left off the sequences shown.

Protein sequences, listed by entry. Tags and fused reporters are not part of them. Residues count along the entry.
UniProt Q969D9, residues 29-159: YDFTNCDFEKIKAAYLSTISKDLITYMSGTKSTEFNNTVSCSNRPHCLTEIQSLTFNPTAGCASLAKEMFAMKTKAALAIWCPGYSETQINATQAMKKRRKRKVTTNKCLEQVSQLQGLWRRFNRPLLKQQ

Target: hTSLP-His (ACRO biosystems cat: TSP-H52Hb) (human) (UniProt Q969D9)
Test: blocking ELISA: competitor mixed with 3 nM hTSLP-His, then on a plate coated with TSLP-R-Fc; bound hTSLP-His by anti-His-HRP

binding: binds
B1: TSLP-R-Fc tag (ACRO biosystems TSR-H525a) (Fc fusion, UniProt Q9HC73 23-231, looked up)
chain: QGGAAEGVQIQIIYFNLETVQVTWNASKYSRTNLTFHYRFNGDEAYDQCTNYLLQEGHTSGCLLDAEQRDDILYFSIRNGTHPVFTASRWMVYYLKPSSPKHVRFSWHQDAVTVTCSDLSYGDLLYEVQYRSPFDTEWQSKQENTCNVTIEGLDAEKCYSFWVRVKAMEDVYGPDTYPSDWSEVTCWQRGEIRDACAETPTPPKPKLSK
notes: bought; also called TSLP receptor; not shown: Fc tag
